This assay deals with BRP1-3xMyc (BRAT1 Partner 1, AT3G15120) (Arabidopsis thaliana). Briefly: affinity purification with mass spectrometry; Anti-c-Myc Agarose on lysate of BRP1-3xMyc transgenic plants (seedling or flower), 4 °C 2.5 h, Lysis buffer 50 mM Tris pH 7.6, 150 mM NaCl, 5 mM MgCl2, 10% glycerol, 0.1% NP-40; eluted with 0.1 M ammonium hydroxide; LTQ mass spectrometry.

These are yes or no findings as the source states them, for the method shown. Binding seen in cells or lysates may run through a third protein. A yes stands for co-enrichment or nearness to the bait. Other partners may have been found.

B1: BRAT1 (Bromodomain and ATPase domain-containing protein 1, AT1G05910), endogenous (protein, UniProt F4IAE9 1-1210)
chain: MHPKRSSQGDGSVTKPVRTSDRLRRRPKLHGRSYLYYSSPNMLHNRKRNTKTRTAASQIAKMLHKGNRPARASNAAPIASDLRRSTRKRRISVNLEDYTDSSGAEDEDMMSPAYRTLRRRVHKNFSTSKSRKDMDAELAPRREGLRPRRSTTIANKRLKTESGADQDTSEEKDGQDETENGNELDDADDGENEVEAEDEGNGEDEGDGEDEGEEDGDDDEEGDEEQEGRKRYDLRNRAEVRRMPTGEINKQQQPRSPRRVLHQGMGTRVGRDGRRGGSRPHKRHRFTRTDDSDDSLLVDELDQGPAIPWARGGNRSGAPWLFGGLDTYGSSSLGLNVGASGWGHQSDGLAALTSGVQTAGPSSKGGADIQPLQINEDINFDDIGGLSEYINDLKEMVFFPLLYPEFFASYSITPPRGVLLCGPPGTGKTLIARALACAASKAGQKVSFYMRKGADVLSKWVGEAERQLKLLFEEAQRNQPSIIFFDEIDGLAPVRSSKQEQIHNSIVSTLLALMDGLDSRGQVVLIGATNRVDAIDGALRRPGRFDREFNFSLPGCEARAEILDIHTRKWKHPPTRELKEELAATCVGYCGADLKALCTEAAIRAFREKYPQVYTSDDKYAIDVGLVNVEKSHFVEAMSAITPAAHRGSVVQSRPLSPVVLPCLHRHLLESMSLISDIFPSSATSSELTKLSILTFGSAIPLVYRPRLLLLGGEGVGLDHLGPAILHELEKFPIHSLGLPSLLSDPGAKTPEEALVHIFSEARRTTPSILYIPMFNNWWENAHEQLRAVFLTLLEELPSNLPILLLATSYGELSDMEEQSVFDNRSVYTVDKPSSEDRSLFFDRLIEAALSVISGLNGKPDGPQPLPELPKVPKEPTGPKPAEVKAKVEAEQHALRRLRMCLRDVCNRILYDKRFSAFHFPVTDEDAPNYRSIIQIPMDTATLLQRVDTGQYLTCTPFLQDVDLIVRNAKAYNGDDYAGARIVSRAYELRDVVHGMLSQMDPALLTYCDKIAAEGGPSLIPDDLSGSILGLAPVVQMGTVTRTSARLRNVQPEVNLDRDYEGLKKPKKTTDAVSIDSAADKSQNQDSGQEMPSPDAANPQSAAPSPTDGDREDQSEPPSKEASAEDMSGDSCKGPAAKSDKEISSRTESVKGVFMERTDNYSIPQMERLYTRIMKGVLETLDKGLRDDDNNPKHSILRFLSEFAQHQANF
In the case of B1, the binding result was “binds”.

Values taken from PMC4899616.
